Binding data for one molecule are collected here from article PMC12521514.

No constants are given. Whether binding was seen depends on the method and setting. Some binding calls cover weakened binding; strength is not graded here.

This experiment has as its target T1, Staphylococcus aureus ClpP wild type (Staphylococcus aureus), Q2G036.
T1 chain: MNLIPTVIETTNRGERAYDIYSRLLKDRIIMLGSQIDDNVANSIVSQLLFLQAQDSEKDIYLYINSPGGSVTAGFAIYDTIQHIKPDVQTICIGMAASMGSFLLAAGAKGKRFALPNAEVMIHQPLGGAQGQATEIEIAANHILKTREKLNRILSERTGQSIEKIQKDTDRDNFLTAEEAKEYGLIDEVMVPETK
The following applies: remark: other sources report otherwise.

B1: Staphylococcus aureus ClpP wild type, Q2G036 1-195 (enzyme)
chain: MNLIPTVIETTNRGERAYDIYSRLLKDRIIMLGSQIDDNVANSIVSQLLFLQAQDSEKDIYLYINSPGGSVTAGFAIYDTIQHIKPDVQTICIGMAASMGSFLLAAGAKGKRFALPNAEVMIHQPLGGAQGQATEIEIAANHILKTREKLNRILSERTGQSIEKIQKDTDRDNFLTAEEAKEYGLIDEVMVPETK
For the molecule B1, the binding entry is recorded as “binds”.
